{
  "source": "PubChem BioAssay AID540276",
  "about": "(National Center for Advancing Translational Sciences (NCATS), 2011)",
  "note": "Screen size: about 300,000 compounds; about 5,400 (1.8%) were called active. Inconclusive results, whose numbers are uncertain, are shown with a selection of clear calls. The call rests on the fitted dose curve; tested in HEK293 cells. Where the call is inconclusive, the potency comes from a doubtful curve fit. Potency means the concentration at half of the fitted maximal effect.",
  "data": [
    {"experiment": "qHTS for inhibitors of binding or entry into cells for Marburg Virus", "conditions": "Marburg virus pseudotyped entry inhibition, cell reporter; series mostly up to 37.8 µM", "values": [
      {"molecule": "COc1cc(C(=O)Nc2sc3c(c2C(=O)O)CCC3)cc(OC)c1OC", "Potency": "inconclusive: 16.4 µM [inhibitor, partial curve, poor fit]"},
      {"molecule": "O=C(Nc1nc(-c2cccc([N+](=O)[O-])c2)cs1)C(c1ccccc1)c1ccccc1", "Potency": "inconclusive: 1.58 µM [inhibitor, full curve]"},
      {"molecule": "Cn1c(C(=O)OCC(=O)NCc2ccco2)cc2sccc21", "Potency": "inactive"},
      {"molecule": "Cc1ccc(OC(C)C(=O)N(Cc2cccs2)C2CCS(=O)(=O)C2)cc1C", "note": "(stereo unspecified)", "Potency": "inconclusive: 15.8 µM [activator, partial curve]"},
      {"molecule": "CC(C)(C)C(=O)N1c2ccccc2CCc2ccccc21", "Potency": "inactive"},
      {"molecule": "N#CCCn1nc(-c2ccc(Cl)cc2)cc1Nc1ccccc1NC(=O)C(F)(F)F", "Potency": "inactive"},
      {"molecule": "COc1cccc2sc(N3CCN(C(=O)c4ccc([N+](=O)[O-])o4)CC3)nc12", "Potency": "inactive"},
      {"molecule": "CCc1nnc2n1N=C(c1ccc(OC)cc1)CS2", "Potency": "inconclusive: 18.3 µM [inhibitor, partial curve, poor fit]"},
      {"molecule": "CCN(CC)c1ccc(/C=C/[N+](=O)[O-])cc1", "Potency": "inconclusive: 20 µM [inhibitor, partial curve, poor fit]"},
      {"molecule": "CCOC(=O)C1(Cc2ccccc2C(F)(F)F)CCN(CC(O)CO)CC1", "note": "(stereo unspecified)", "Potency": "inconclusive: 11.2 µM [inhibitor, partial curve, poor fit]"},
      {"molecule": "CC(C)c1ccc(C(=O)N2CCCN(C(=O)c3ccc(C(C)C)cc3)CC2)cc1", "Potency": "inconclusive: 1.41 µM [inhibitor, partial curve]"},
      {"molecule": "COc1ccc2cc(S(=O)(=O)NCCCN3CCOCC3)ccc2c1", "Potency": "inconclusive: 6.51 µM [activator, single point]"},
      {"molecule": "O=C(NC1CCCC1)c1cc2c(ccc3ccccc32)o1", "Potency": "inconclusive: 35.5 µM [inhibitor, single point]"},
      {"molecule": "O=C(N/N=C/c1coc2ccccc2c1=O)c1ccccc1", "Potency": "inconclusive: 12.6 µM [activator, single point]"},
      {"molecule": "CCCc1nnc(-c2ccc(OC)cc2)o1", "Potency": "inconclusive: 11.2 µM [activator, partial curve, poor fit]"},
      {"molecule": "CN(C)c1ccc(-c2nc(-c3ccccn3)no2)cc1[N+](=O)[O-]", "Potency": "inconclusive: 35.5 µM [activator, single point]"},
      {"molecule": "COc1cc(NCCC(=O)c2cccs2)c(OC)cc1Cl", "Potency": "inconclusive: 20 µM [inhibitor, partial curve, poor fit]"},
      {"molecule": "CCCCN(C/C=C/c1ccccc1OC)Cc1ccccc1", "Potency": "inconclusive: 11.2 µM [inhibitor, single point]"},
      {"molecule": "O=C(CC1Nc2ccccc2NC1=O)Nc1ccccc1", "note": "(stereo unspecified)", "Potency": "inconclusive: 11.2 µM [inhibitor, partial curve, poor fit]"},
      {"molecule": "Fc1ccccc1-c1nc(-c2ccccc2)oc1NCc1ccccc1", "Potency": "inactive"},
      {"molecule": "Cc1cc(C)n(-c2cccc(CN(C)Cc3nc(-c4cnccn4)no3)c2)n1", "Potency": "inconclusive: 3.16 µM [inhibitor, partial curve, poor fit]"},
      {"molecule": "O=C1Cc2ccccc2C(=O)N1OCc1ccc(Cl)cc1Cl", "Potency": "inconclusive: 7.08 µM [activator, partial curve, poor fit]"},
      {"molecule": "OCc1ccnc2c(O)cccc12", "Potency": "inconclusive: 2.31 µM [inhibitor, full curve, poor fit]"},
      {"molecule": "Cc1sc2nc(CN(C(=O)NCc3ccccc3)C3CCCC3)[nH]c(=O)c2c1C", "Potency": "inconclusive: 35.5 µM [inhibitor, single point]"},
      {"molecule": "CCCn1c(=O)c2c(nc(Br)n2CCC)n(C)c1=O", "Potency": "inactive"},
      {"molecule": "COc1ccc(OCC(=O)Nc2cccc(-c3nc4ccccc4[nH]3)c2)cc1", "Potency": "inconclusive: 29.1 µM [inhibitor, single point]"},
      {"molecule": "COc1ccc(OCCC(=O)N2CCOCC2)cc1", "Potency": "inconclusive: 1.26 µM [activator, partial curve, poor fit]"},
      {"molecule": "Cc1cc(-c2ccc(C)c(S(=O)(=O)N3CCN(c4ccc([N+](=O)[O-])cc4)CC3)c2)on1", "Potency": "inconclusive: 2.51 µM [inhibitor, full curve, poor fit]"},
      {"molecule": "COc1ccc(Cn2c(=O)[nH]c3cc(C(=O)Nc4ccc(N5CCN(C)CC5)cc4)ccc32)cc1", "Potency": "inconclusive: 11.2 µM [inhibitor, partial curve, poor fit]"},
      {"molecule": "COc1cccc(CN(C)CC(=O)Nc2ccccc2C(C)C)c1", "Potency": "inconclusive: 8.91 µM [inhibitor, partial curve, poor fit]"},
      {"molecule": "CNC(=O)n1cc(C)c(-c2cccs2)n1", "Potency": "inactive"},
      {"molecule": "CCCc1ccc(Oc2c(-c3ccc(O)c(C)c3O)n[nH]c2C)cc1", "Potency": "inconclusive: 0.73 µM [inhibitor, full curve, poor fit]"},
      {"molecule": "O=C(Nc1ccc(Br)cc1)c1ccc(-n2cnnn2)cc1", "Potency": "inactive"},
      {"molecule": "COc1ccc2[nH]cc(/C=C(/C#N)S(=O)(=O)c3ccccc3)c2c1", "Potency": "inconclusive: 25.1 µM [inhibitor, single point]"},
      {"molecule": "Cc1cc(C(=O)COC(=O)c2cccnc2Cl)c(C)n1-c1c(C)n(C)n(-c2ccccc2)c1=O", "Potency": "inactive"},
      {"molecule": "O=c1c2ccccc2nc(/C=C/c2ccccc2)n1-c1ccc(O)cc1", "Potency": "inconclusive: 28.2 µM [inhibitor, single point]"},
      {"molecule": "O=C(NC1=NCCS1)c1cc(-c2ccc(-c3ccccc3)cc2)nc2ccccc12", "Potency": "inconclusive: 15.8 µM [inhibitor, partial curve, poor fit]"},
      {"molecule": "Cc1cccc(C(=O)NC(=S)NNC(=O)c2ccc(Cl)cc2)c1", "Potency": "inconclusive: 17.8 µM [inhibitor, single point]"},
      {"molecule": "C=CCN(c1ccccc1OC)S(=O)(=O)c1cccc(C(=O)OCC(=O)N2CC(C)OC(C)C2)c1", "note": "(stereo unspecified)", "Potency": "inconclusive: 35.5 µM [inhibitor, single point]"},
      {"molecule": "O=C(Nc1ccc2c(c1)OCO2)c1cccc(S(=O)(=O)N2CCCC2)c1", "Potency": "inconclusive: 32.6 µM [inhibitor, single point]"},
      {"molecule": "CCN(CC(=O)NCc1ccc(F)cc1)C(=O)CN1CCN(c2ccc(OC)cc2)CC1", "Potency": "inconclusive: 8.91 µM [activator, partial curve, poor fit]"}
    ]}
  ]
}
